Measurements from patent publication US20180118829A1.
Results are given in words; binding and its absence hold for the method and conditions named. Some binding calls cover weakened binding; strength is not graded here.

By UniProt entry, the sequences of proteins in these tests, tags left out. Residues count along the entry.
UniProt Q02242, residues 25-167: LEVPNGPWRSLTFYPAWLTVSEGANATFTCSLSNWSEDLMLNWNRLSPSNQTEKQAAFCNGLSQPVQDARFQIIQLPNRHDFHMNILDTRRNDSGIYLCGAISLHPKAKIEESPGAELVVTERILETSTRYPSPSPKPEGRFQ
UniProt Q15116, residues 25-167: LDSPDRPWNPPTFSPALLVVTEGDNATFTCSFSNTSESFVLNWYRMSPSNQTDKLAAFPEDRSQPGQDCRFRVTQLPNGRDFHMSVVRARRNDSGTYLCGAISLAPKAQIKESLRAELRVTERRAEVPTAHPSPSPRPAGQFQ

Assays:
[1] = molecular target: Mouse PD-1-Fc fusion (mouse) (UniProt Q02242); test: BLI (Octet, ForteBio): mPD1 (mouse PD-1-Fc) on the sensor, hFc blocking, then anti-PD-1 antibody step at 840-1140 s (10 µg/mL per paragraph 359)
[2] = molecular target: Human PD-1-Fc fusion (human) (UniProt Q15116); test: BLI (Octet, ForteBio): hPD1 (human PD-1-Fc) on the sensor, hFc blocking, then anti-PD-1 antibody step at 840-1140 s (10 µg/mL per paragraph 360)
[3] = molecular target: Human PD-1-Fc fusion (human) (UniProt Q15116); test: BLI (Octet, ForteBio): hPD1 (human PD-1-Fc) on the sensor, hFc blocking, anti-PD-1 antibody step at 840-1140 s (10 µg/mL per paragraph 360), then buffer without ligand

Measured: binding

B1: antibody 12228 (antibody, V domains shown)
VH: QVQLVQSGAEVKKPGASVKVSCKASGYTFTSYYMHWVRQAPGQGLEWMGIINPSGGSTSYAQKFQGRVTMTRDTSTSTVYMELSSLRSEDTAVYYCARGGTYYDYTYWGQGTLVTVSS
VL: DIQMTQSPSTLSASVGDRVTITCRASQSISSWLAWYQQKPGKAPKLLIYEASSLESGVPSRFSGSGSGTEFTLTISSLQPDDFATYYCQQYNSFPPTFGGGTKVEIK
binds: all assays above

B2: antibody 13406 (antibody, V domains shown)
VH: QVQLVQSGAEVKKPGASVKVSCKASGYTFDQYYMHWVRQAPGQGLEWMGIINPSGGSTAYAQKFQGRVTMTRDTSTSTVYMELSSLRSEDTAVYYCARGGTYYDYTYWGQGTLVTVSS
VL: DIQMTQSPSTLSASVGDRVTITCRASQSISSWLAWYQQKPGKAPKLLIYEASSLESGVPSRFSGSGSGTEFTLTISSLQPDDFATYYCQQYNSFPPTFGGGTKVEIK
binds: all assays above

B3: antibody 13409 (antibody, V domains shown)
VH: QVQLVQSGAEVKKPGASVKVSCKASGYTFESYYMHWVRQAPGQGLEWMGIINPSGGVTAYAQKFQGRVTMTRDTSTSTVYMELSSLRSEDTAVYYCARGGTYYDYTYWGQGTLVTVSS
VL: DIQMTQSPSTLSASVGDRVTITCRASQSISSWLAWYQQKPGKAPKLLIYEASSLESGVPSRFSGSGSGTEFTLTISSLQPDDFATYYCQQYNSFPPTFGGGTKVEIK
binds: all assays above

B4: antibody 13407 (antibody, V domains shown)
VH: QVQLVQSGAEVKKPGASVKVSCKASGYTFPSYYMHWVRQAPGQGLEWMGIINPEGGSTAYAQKFQGRVTMTRDTSTSTVYMELSSLRSEDTAVYYCARGGTYYDYTYWGQGTLVTVSS
VL: DIQMTQSPSTLSASVGDRVTITCRASQSISSWLAWYQQKPGKAPKLLIYEASSLESGVPSRFSGSGSGTEFTLTISSLQPDDFATYYCQQYNSFPPTFGGGTKVEIK
binds: all assays above

B5: antibody 13408 (antibody, V domains shown)
VH: QVQLVQSGAEVKKPGASVKVSCKASGYTFSDYYMHWVRQAPGQGLEWMGIINPSGGVTAYAQKFQGRVTMTRDTSTSTVYMELSSLRSEDTAVYYCARGGTYYDYTYWGQGTLVTVSS
VL: DIQMTQSPSTLSASVGDRVTITCRASQSISSWLAWYQQKPGKAPKLLIYEASSLESGVPSRFSGSGSGTEFTLTISSLQPDDFATYYCQQYNSFPPTFGGGTKVEIK
binds: all assays above
